Source: PubChem BioAssay AID743121 (NCATS, 2013)
In all, the deposit lists about 26,000 reagents; shown is a part drawn at random. Over the whole deposit, 167 (0.63%) were called active. 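Calls are per gene from RSA p-values that are not deposited; an individual active-marked siRNA can sensitise only weakly.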 The numbers tell different reagents against one gene apart. Not all columns of the deposit are shown.

Screen: 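Partners whose loss is lethal together with topoisomerase I blockade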 (primary screen)
System: MDA-MB-231 cells, a human breast cancer line
Knock-down reagent: single siRNA against human genes, 20 nM siRNA (0.8 pmol per well)
Duration: 120 h (drug added 48 h after transfection, read 72 h later)
Treatment: camptothecin 20 nM (about EC30) for 72 h; vehicle 0.1% DMSO in parallel plates
Read-out: 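CellTiter-Glo ATP signal, scaled to control siRNA as percent viability; sensitisation given as log2 of untreated divided by camptothecin-treated viability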
Direction: log2 vehicle/camptothecin viability: higher = stronger sensitisation to camptothecin; viability with camptothecin: higher = more viable cells
Hit rule: 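Each gene scored by redundant siRNA activity (RSA) over its individual siRNA ratios; a gene is called active at p < 0.001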

Knock-down of STK39 #1 gave: log2 vehicle/camptothecin viability 0.0768; viability with camptothecin (% of control) = 60.4; inactive.
Silencing of STK39 #2 came out at: log2 vehicle/camptothecin viability -0.451; viability with camptothecin (% of control) = 61.3; inactive.
For STK39 #3 the deposit lists log2 vehicle/camptothecin viability 0.159; viability with camptothecin (% of control) = 92.9; inactive.
STK39 #4 gave log2 vehicle/camptothecin viability -0.602; viability with camptothecin (% of control) = 99.5; inactive.
PRMT3 #1 scored log2 vehicle/camptothecin viability -0.334; viability with camptothecin (% of control) = 93.6; inactive.
PRMT3 #2 gave log2 vehicle/camptothecin viability 0.011; viability with camptothecin (% of control) = 82.3; inactive.
Against PRMT3 #3 the deposit lists log2 vehicle/camptothecin viability -0.307; viability with camptothecin (% of control) = 48.5; inactive.
PRMT3 #4 gave log2 vehicle/camptothecin viability -0.0711; viability with camptothecin (% of control) = 34.7; inactive.
Silencing of TAAR5 #1 gave: log2 vehicle/camptothecin viability -0.0411; viability with camptothecin (% of control) = 107; inactive.
After knock-down of TAAR5 #2, the record shows log2 vehicle/camptothecin viability -0.49; viability with camptothecin (% of control) = 122; inactive.
TAAR5 #3 showed log2 vehicle/camptothecin viability -0.544; viability with camptothecin (% of control) = 49.8; inactive.
Silencing of TAAR5 #4 came out at: log2 vehicle/camptothecin viability -0.187; viability with camptothecin (% of control) = 110; inactive.
After knock-down of PEAK1 #1 the results were log2 vehicle/camptothecin viability 0.0661; viability with camptothecin (% of control) = 72.1; inactive.
After knock-down of PEAK1 #2 the results were log2 vehicle/camptothecin viability 0.345; viability with camptothecin (% of control) = 21.6; inactive.
PEAK1 #3 gave log2 vehicle/camptothecin viability -0.382; viability with camptothecin (% of control) = 101; inactive.
After knock-down of PEAK1 #4, the record shows log2 vehicle/camptothecin viability -0.0457; viability with camptothecin (% of control) = 83.1; inactive.
After knock-down of PEAK1 #5, the record shows log2 vehicle/camptothecin viability -0.172; viability with camptothecin (% of control) = 99.6; inactive.

3 of these entries, set out differently.
| gene | reagent | log2 vehicle/camptothecin viability | viability with camptothecin (% of control) | activity call |
| --- | --- | --- | --- | --- |
| STK39 | 4 | -0.602 | 99.5 | inactive |
| PRMT3 | 1 | -0.334 | 93.6 | inactive |
| PRMT3 | 2 | 0.011 | 82.3 | inactive |

The listing continues:
With knock-down of DVL1 #1 the results were log2 vehicle/camptothecin viability 0.811; viability with camptothecin (% of control) = 56.9; inactive.
With knock-down of DVL1 #2, the screen gave log2 vehicle/camptothecin viability -0.622; viability with camptothecin (% of control) = 81.1; inactive.
Silencing of DVL1 #3 came out at: log2 vehicle/camptothecin viability -0.0961; viability with camptothecin (% of control) = 91.3; inactive.
After knock-down of DVL1 #4 the results were log2 vehicle/camptothecin viability -0.2; viability with camptothecin (% of control) = 104; inactive.
Silencing of TRIM35 #1 resulted in: log2 vehicle/camptothecin viability -0.0968; viability with camptothecin (% of control) = 24.4; inactive.
Knock-down of TRIM35 #2 came out at: log2 vehicle/camptothecin viability -0.33; viability with camptothecin (% of control) = 90.9; inactive.
TRIM35 #3 showed log2 vehicle/camptothecin viability 0.175; viability with camptothecin (% of control) = 88.9; inactive.
Depletion of TRIM35 #4 came out at: log2 vehicle/camptothecin viability -0.0724; viability with camptothecin (% of control) = 127; inactive.
ARHGDIA #1 gave log2 vehicle/camptothecin viability -0.0478; viability with camptothecin (% of control) = 42.9; inactive.
Knock-down of ARHGDIA #2 came out at: log2 vehicle/camptothecin viability -0.358; viability with camptothecin (% of control) = 103; inactive.
ARHGDIA #3 gave log2 vehicle/camptothecin viability -0.36; viability with camptothecin (% of control) = 110; inactive.
For ROR1 #1, the entry reads log2 vehicle/camptothecin viability 0.19; viability with camptothecin (% of control) = 79.2; inactive.
ROR1 #2 gave log2 vehicle/camptothecin viability -0.12; viability with camptothecin (% of control) = 103; inactive.
Knock-down of ROR1 #3 resulted in: log2 vehicle/camptothecin viability -0.16; viability with camptothecin (% of control) = 61.9; inactive.
With knock-down of ROR1 #4 the results were log2 vehicle/camptothecin viability 1.05; viability with camptothecin (% of control) = 47.3; inactive.
RAPGEFL1 #1 scored log2 vehicle/camptothecin viability -0.855; viability with camptothecin (% of control) = 51.5; inactive.
Depletion of RAPGEFL1 #2 gave: log2 vehicle/camptothecin viability -0.333; viability with camptothecin (% of control) = 92.3; inactive.
Depletion of RAPGEFL1 #3 resulted in: log2 vehicle/camptothecin viability -0.0578; viability with camptothecin (% of control) = 59.5; inactive.
RAPGEFL1 #4 scored log2 vehicle/camptothecin viability -0.0537; viability with camptothecin (% of control) = 38.4; inactive.
